Experimental findings from article PMC10715029, “Interaction and assembly of the DNA replication core proteins of Kaposi’s sarcoma-associated herpesvirus” (Microbiology Spectrum, 2023) are described below.

The target in assay [1] is T1, GFP-ORF40/41 (Kaposi's sarcoma-associated herpesvirus (KSHV, human herpesvirus 8)) (UniProt Q2HR92).
T1 sequence: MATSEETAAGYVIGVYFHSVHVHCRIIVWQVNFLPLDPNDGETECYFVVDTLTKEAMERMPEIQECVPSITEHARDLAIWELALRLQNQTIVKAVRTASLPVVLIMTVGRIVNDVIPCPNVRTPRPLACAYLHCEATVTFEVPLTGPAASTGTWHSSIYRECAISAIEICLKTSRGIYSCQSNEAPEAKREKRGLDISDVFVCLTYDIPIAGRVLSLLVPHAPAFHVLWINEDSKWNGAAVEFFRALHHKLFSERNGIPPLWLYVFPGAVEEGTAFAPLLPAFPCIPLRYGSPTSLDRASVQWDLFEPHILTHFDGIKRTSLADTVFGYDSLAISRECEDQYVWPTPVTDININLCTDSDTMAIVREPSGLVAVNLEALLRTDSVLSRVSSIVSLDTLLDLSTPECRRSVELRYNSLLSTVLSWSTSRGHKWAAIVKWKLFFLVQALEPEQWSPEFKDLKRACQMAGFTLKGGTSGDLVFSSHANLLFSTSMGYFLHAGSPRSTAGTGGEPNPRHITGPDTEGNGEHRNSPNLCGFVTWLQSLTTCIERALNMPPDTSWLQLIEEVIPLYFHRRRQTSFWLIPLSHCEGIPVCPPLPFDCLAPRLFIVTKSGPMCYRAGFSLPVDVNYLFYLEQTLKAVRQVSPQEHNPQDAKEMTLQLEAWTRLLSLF
In words: co-IP; 293T cells cotransfected with a GFP fusion and FLAG-tagged proteins for 24 h; lysis in 50 mM Tris-HCl pH 7.6, 150 mM NaCl, 1 mM EDTA, 1% Triton X-100, 1 mM PMSF; precipitation with GFP-Trap MA beads; blots with anti-GFP and anti-FLAG.

The target in assay [2] is T2, GFP-ORF9 (Kaposi's sarcoma-associated herpesvirus (KSHV, human herpesvirus 8)) (UniProt Q2HRD0).
T2 sequence: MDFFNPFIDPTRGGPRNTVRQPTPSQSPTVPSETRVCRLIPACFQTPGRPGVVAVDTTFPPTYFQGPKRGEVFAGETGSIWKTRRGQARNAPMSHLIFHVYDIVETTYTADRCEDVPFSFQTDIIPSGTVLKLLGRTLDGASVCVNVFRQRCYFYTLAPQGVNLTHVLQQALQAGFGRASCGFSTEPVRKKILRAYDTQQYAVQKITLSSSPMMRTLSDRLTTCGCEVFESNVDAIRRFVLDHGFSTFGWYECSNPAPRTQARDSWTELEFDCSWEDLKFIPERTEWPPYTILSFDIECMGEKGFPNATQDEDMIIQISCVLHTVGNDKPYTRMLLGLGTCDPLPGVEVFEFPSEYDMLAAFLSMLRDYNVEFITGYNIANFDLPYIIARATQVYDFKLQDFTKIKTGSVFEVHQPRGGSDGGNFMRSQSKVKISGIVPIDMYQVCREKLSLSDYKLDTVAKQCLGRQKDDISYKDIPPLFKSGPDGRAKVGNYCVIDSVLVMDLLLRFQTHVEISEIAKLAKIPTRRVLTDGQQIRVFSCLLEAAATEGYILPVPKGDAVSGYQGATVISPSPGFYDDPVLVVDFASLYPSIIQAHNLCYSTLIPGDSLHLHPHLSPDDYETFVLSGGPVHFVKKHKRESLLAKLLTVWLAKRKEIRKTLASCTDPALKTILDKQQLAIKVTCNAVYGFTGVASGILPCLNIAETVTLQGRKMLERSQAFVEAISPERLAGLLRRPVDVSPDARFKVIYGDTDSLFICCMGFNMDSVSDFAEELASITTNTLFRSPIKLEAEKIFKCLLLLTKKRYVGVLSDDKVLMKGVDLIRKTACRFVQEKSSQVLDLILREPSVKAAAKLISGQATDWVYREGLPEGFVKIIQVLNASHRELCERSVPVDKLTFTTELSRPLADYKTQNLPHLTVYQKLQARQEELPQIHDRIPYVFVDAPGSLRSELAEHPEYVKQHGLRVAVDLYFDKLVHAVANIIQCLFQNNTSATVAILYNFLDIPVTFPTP
Described as above.

In assay [3] the target is T3, GAL4-ORF6 (Kaposi's sarcoma-associated herpesvirus (KSHV, human herpesvirus 8)) (UniProt Q2HRD3).
T3 sequence: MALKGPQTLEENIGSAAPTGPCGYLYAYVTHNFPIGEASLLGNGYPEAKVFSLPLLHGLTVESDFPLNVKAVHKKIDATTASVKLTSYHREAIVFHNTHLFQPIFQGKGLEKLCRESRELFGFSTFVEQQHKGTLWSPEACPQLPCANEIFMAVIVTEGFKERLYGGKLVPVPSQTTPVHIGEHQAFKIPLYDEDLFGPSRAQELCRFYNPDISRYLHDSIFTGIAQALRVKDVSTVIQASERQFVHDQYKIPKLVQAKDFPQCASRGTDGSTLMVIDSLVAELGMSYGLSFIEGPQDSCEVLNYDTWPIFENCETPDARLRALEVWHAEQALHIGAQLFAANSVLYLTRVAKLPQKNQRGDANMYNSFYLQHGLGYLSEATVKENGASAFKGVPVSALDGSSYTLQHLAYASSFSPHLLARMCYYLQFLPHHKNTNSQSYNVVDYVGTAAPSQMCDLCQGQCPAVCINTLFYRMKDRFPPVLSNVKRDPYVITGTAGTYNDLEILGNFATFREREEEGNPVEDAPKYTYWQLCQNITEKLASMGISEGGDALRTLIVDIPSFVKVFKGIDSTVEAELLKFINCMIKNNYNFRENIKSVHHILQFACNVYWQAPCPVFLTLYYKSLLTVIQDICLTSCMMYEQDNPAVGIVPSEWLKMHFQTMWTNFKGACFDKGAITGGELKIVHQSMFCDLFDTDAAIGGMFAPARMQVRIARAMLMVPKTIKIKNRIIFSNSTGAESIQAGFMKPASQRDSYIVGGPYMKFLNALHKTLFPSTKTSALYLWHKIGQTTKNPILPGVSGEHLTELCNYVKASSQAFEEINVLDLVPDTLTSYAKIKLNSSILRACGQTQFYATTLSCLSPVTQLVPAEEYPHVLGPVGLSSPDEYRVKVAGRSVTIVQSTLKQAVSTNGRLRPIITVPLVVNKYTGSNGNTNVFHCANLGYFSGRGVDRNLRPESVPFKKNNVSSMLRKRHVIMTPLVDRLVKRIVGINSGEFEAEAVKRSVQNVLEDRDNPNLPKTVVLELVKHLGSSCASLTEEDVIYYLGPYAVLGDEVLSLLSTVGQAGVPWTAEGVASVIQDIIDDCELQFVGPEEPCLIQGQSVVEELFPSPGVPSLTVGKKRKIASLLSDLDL
In words: two-hybrid; mammalian two-hybrid (GAL4/VP16) in 293T cells, pGal4(5×)-Luc reporter, only the GAL4 and the VP16 fusion coexpressed, luciferase at 24 h, fold activation over empty vector; radicicol (0.25-1 µM) inhibited the activation by GAL4-ORF59 and VP16-ORF9 dose-dependently.

No constants are given. Whether binding was seen depends on the method and setting. For some of these results: In cells and extracts the contact can be indirect. Some results given as binding are weak or reduced against the parent protein; the word gives no strength. For some of these results: Where a sequence is shown, tags or fusion partners need not be part of it.

B1: F-ORF9 (protein, UniProt Q2HRD0 1-1012)
chain: MDFFNPFIDPTRGGPRNTVRQPTPSQSPTVPSETRVCRLIPACFQTPGRPGVVAVDTTFPPTYFQGPKRGEVFAGETGSIWKTRRGQARNAPMSHLIFHVYDIVETTYTADRCEDVPFSFQTDIIPSGTVLKLLGRTLDGASVCVNVFRQRCYFYTLAPQGVNLTHVLQQALQAGFGRASCGFSTEPVRKKILRAYDTQQYAVQKITLSSSPMMRTLSDRLTTCGCEVFESNVDAIRRFVLDHGFSTFGWYECSNPAPRTQARDSWTELEFDCSWEDLKFIPERTEWPPYTILSFDIECMGEKGFPNATQDEDMIIQISCVLHTVGNDKPYTRMLLGLGTCDPLPGVEVFEFPSEYDMLAAFLSMLRDYNVEFITGYNIANFDLPYIIARATQVYDFKLQDFTKIKTGSVFEVHQPRGGSDGGNFMRSQSKVKISGIVPIDMYQVCREKLSLSDYKLDTVAKQCLGRQKDDISYKDIPPLFKSGPDGRAKVGNYCVIDSVLVMDLLLRFQTHVEISEIAKLAKIPTRRVLTDGQQIRVFSCLLEAAATEGYILPVPKGDAVSGYQGATVISPSPGFYDDPVLVVDFASLYPSIIQAHNLCYSTLIPGDSLHLHPHLSPDDYETFVLSGGPVHFVKKHKRESLLAKLLTVWLAKRKEIRKTLASCTDPALKTILDKQQLAIKVTCNAVYGFTGVASGILPCLNIAETVTLQGRKMLERSQAFVEAISPERLAGLLRRPVDVSPDARFKVIYGDTDSLFICCMGFNMDSVSDFAEELASITTNTLFRSPIKLEAEKIFKCLLLLTKKRYVGVLSDDKVLMKGVDLIRKTACRFVQEKSSQVLDLILREPSVKAAAKLISGQATDWVYREGLPEGFVKIIQVLNASHRELCERSVPVDKLTFTTELSRPLADYKTQNLPHLTVYQKLQARQEELPQIHDRIPYVFVDAPGSLRSELAEHPEYVKQHGLRVAVDLYFDKLVHAVANIIQCLFQNNTSATVAILYNFLDIPVTFPTP
In the case of B1, the binding entry in assay [1] is “binds”.

B2: VP16-ORF44 (natural protein)
chain: MDSSEGCTDMDEPSPGFILNMTSDAKVRSVVEQIDRLSNITTSPPEMGWYDLEFDPLEDEGPFLPFSAYVITGTAGAGKSTSVSALHQNLNCLITGATVVAAQNLSRALKSYCPTIYHAFGFKSRHINICQRKVPKVTQSSIEQLQRYELARYWPTVTDIIREFMRKKQKGQYSSLSQSAFRLLCRMGGANLWTSNIIVIDEAGTLSSHILTAVVFFYWFYNSWLDTPLYRNGAVPCIVCVGSPTQTDAFQSVFNHTQQRNEISACDNVLTFLLGKREVADYIRLDENWALFINNKRCTDPQFGHLLKTLEYNLDISPELMDYIDRFVVPKSKILDPLEYAGWTRLFISHQEVKSFLATLHTCLSSNKDAVSTKLFTCPVVCEVFTEPFEEYKRAVGLTHMTPIEWVTKNLFRLSNYSQFADQDMAVVGTYITDASTQITFATKFVKNSYATLTGKTKKCICGFHGSYQRFKSILDGELFIESHSHDNPAYVYSFLSTLLYNAMYSFYAHGVKQGHEEFLRDLRELPVSQELISEMSSEDVLGQEGDTDAFYLTASLPPSPTHAALPTLVAYYSGAKELFCNRLALARRHFGDEFLHSDFSTFTVNIVVRDGVDFVSTSPGLHGLVAYASTIDTYIIQGYTFLPVRFGRPGGQRLSEDLRRKMPSIVVQDSSGFIACLENNVTKMTETLEGGDVFNICCAGDYGISSNLAMTIVKAQGVSLSRVAISFGNHRNIRASLVYVGVSRAIDARYLVMDSNPLKLMDRGDAQSPSSKYIIKALCNPKTTLIY
notes: KSHV ORF44, helicase (HEL); source: 293T, transfected, mammalian two-hybrid fusion
With B2, the binding entry in assay [1] and in assay [2] was “binds” each time.

B3: VP16-ORF40/41 (natural protein)
chain: MATSEETAAGYVIGVYFHSVHVHCRIIVWQVNFLPLDPNDGETECYFVVDTLTKEAMERMPEIQECVPSITEHARDLAIWELALRLQNQTIVKAVRTASLPVVLIMTVGRIVNDVIPCPNVRTPRPLACAYLHCEATVTFEVPLTGPAASTGTWHSSIYRECAISAIEICLKTSRGIYSCQSNEAPEAKREKRGLDISDVFVCLTYDIPIAGRVLSLLVPHAPAFHVLWINEDSKWNGAAVEFFRALHHKLFSERNGIPPLWLYVFPGAVEEGTAFAPLLPAFPCIPLRYGSPTSLDRASVQWDLFEPHILTHFDGIKRTSLADTVFGYDSLAISRECEDQYVWPTPVTDININLCTDSDTMAIVREPSGLVAVNLEALLRTDSVLSRVSSIVSLDTLLDLSTPECRRSVELRYNSLLSTVLSWSTSRGHKWAAIVKWKLFFLVQALEPEQWSPEFKDLKRACQMAGFTLKGGTSGDLVFSSHANLLFSTSMGYFLHAGSPRSTAGTGGEPNPRHITGPDTEGNGEHRNSPNLCGFVTWLQSLTTCIERALNMPPDTSWLQLIEEVIPLYFHRRRQTSFWLIPLSHCEGIPVCPPLPFDCLAPRLFIVTKSGPMCYRAGFSLPVDVNYLFYLEQTLKAVRQVSPQEHNPQDAKEMTLQLEAWTRLLSLF
notes: KSHV ORF40/41, primase-associated factor (PAF); source: 293T, transfected, mammalian two-hybrid fusion
Take B3: the binding entry in assay [3] is reported as “binds”.
